This passage reports binding results from article PMC7432924.

Sequences of proteins named here, by UniProt entry; tags and fusion partners are left off. A change or cut given only in a name is not applied to a line headed by its entry.
UniProt A0R0A4: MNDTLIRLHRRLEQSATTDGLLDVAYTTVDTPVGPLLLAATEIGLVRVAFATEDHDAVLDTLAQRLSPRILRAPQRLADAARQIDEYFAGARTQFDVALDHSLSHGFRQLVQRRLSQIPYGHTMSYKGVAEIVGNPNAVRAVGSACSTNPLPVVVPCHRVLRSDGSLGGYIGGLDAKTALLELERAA
UniProt A0R1Z2: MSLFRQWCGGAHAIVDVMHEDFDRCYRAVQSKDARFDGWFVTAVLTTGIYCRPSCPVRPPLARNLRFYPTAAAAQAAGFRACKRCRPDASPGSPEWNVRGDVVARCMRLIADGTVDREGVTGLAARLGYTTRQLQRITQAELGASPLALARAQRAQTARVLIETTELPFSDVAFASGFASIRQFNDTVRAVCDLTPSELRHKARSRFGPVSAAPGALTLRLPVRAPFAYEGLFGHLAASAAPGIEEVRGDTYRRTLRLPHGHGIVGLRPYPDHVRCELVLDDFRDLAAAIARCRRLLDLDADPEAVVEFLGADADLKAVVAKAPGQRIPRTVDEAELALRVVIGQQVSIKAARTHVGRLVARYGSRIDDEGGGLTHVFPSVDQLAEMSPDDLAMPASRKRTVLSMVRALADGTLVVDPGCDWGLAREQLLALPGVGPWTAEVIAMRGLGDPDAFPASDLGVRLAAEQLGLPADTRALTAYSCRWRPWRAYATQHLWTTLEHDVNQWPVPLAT

No constants are given. Whether binding was seen depends on the method and setting. Binding calls can cover weak binding; strength is not graded here.

The test concerns the target GST-Ogt fused protein (M. smegmatis Ogt) (M. smegmatis) (UniProt A0R0A4). The experiment in a line: SEC; the two purified proteins incubated in 1:1 ratio in 50 mM Tris-HCl pH 8.0, 20 mM NaCl for 2 h at 25 °C, then Superdex 200 10/300 GL; peak analysed by SDS-PAGE and LC-MS/MS; both purified. On the technique in general: In gel filtration, larger molecules generally elute earlier.

For “GST-Ada-AlkA (recombinant M. smegmatis Ada-AlkA) (from UniProt A0R1Z2)”, the binding entry is recorded as “binds”.
